Data on two sequences can be found in PMC5331223.

For some assays here: Negatives hold for the conditions tested. For some assays here: At least one verdict was read from the data and is not stated in words by the source. For some assays here: The comparison behind a weaker result is the experiment's own reference, which may not be listed here. For some assays here: Tags and fusion partners may be left off the protein sequences shown.

Series [1] deals with T1, NIN (520-878) (Lotus japonicus) (UniProt Q9S7B1).
T1 sequence (looked up): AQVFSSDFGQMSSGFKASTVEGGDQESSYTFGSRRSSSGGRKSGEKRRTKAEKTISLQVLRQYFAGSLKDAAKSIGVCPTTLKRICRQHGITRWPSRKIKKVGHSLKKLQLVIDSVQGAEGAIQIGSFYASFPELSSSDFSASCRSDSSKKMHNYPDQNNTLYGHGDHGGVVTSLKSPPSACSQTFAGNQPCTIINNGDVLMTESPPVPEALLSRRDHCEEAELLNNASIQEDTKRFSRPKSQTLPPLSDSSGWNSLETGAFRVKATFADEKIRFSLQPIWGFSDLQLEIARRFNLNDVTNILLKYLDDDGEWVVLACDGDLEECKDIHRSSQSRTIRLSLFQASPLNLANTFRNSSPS
As to the kind of experiment: EMSA. To be noted: 25 mM Tris-HCl pH 8.0, 80 mM NaCl, 35 mM KCl, 5 mM MgCl2, 10% glycerol, 1 mM DTT, 0.1% Triton; 25 nM probe, 2 ul protein (ERN1 0.75 mg/ml, NIN 1.0 mg/ml stock); recombinant protein; residues 520-878; protein details: His-tag (pET30); label: 6-FAM at 5' of strand 1.

For the next series, the target named is ERN1 (Lotus japonicus) (UniProt A0A1X9PY88). The experiment in a line: EMSA. To be noted: 25 mM Tris-HCl pH 8.0, 80 mM NaCl, 35 mM KCl, 5 mM MgCl2, 10% glycerol, 1 mM DTT, 0.1% Triton; 25 nM probe, 2 ul protein (ERN1 0.75 mg/ml, NIN 1.0 mg/ml stock); recombinant protein; residues 1-269; protein details: His-tag (pET30); label: 6-FAM at 5' of strand 1.

Consider “ATACCCTGCCTTTTCAGACAAGTACCCGAGGCACAAAA (double strand) [Nin1 mutation probe]”, for which, in series [1], the binding result is reported as “binds more weakly”. “TGTCATTGTTATATTTGTCTGAGATCCCAC (double strand) [Ern1 mutation probe]”: the binding result with ERN1 (Lotus japonicus) is “no binding”.
